Consider two molecules from publication PMC3210814.

Test [1] has as its target bovine pancreatic trypsin (bovine). Put plainly: enzyme inhibition assay (chromogenic substrate), Lineweaver-Burk plots and replot of the slopes; trypsin 400 nM pre-incubated with the inhibitor for 30 min; 100 mM Tris-HCl pH 8.0, 10 mM CaCl2, 25°C; substrate Nα-benzoyl-L-arginine 4-nitroanilide 0.1 to 0.8 mM; p-nitroaniline read at 405 nm for 5 min; both purified.
Test [2] deals with bovine pancreatic α-chymotrypsin (bovine). The test can be described thus: enzyme inhibition assay (chromogenic substrate), inhibition against inhibitor concentration; chymotrypsin or elastase 100 nM incubated with 0 to 40000 nM rSdPI for 30 min; as for trypsin, with the relevant chromogenic substrates; both purified.

No constants are given. Whether binding was seen depends on the method and setting.

B1: SdPI Lys14Ala mutant (peptide, UniProt P0DJ45 22-80)
chain: KNKCQLPSDVGKGAASFTRYYYNEEGGKCETFIYGGVGGNSNNFLTKEDCCRECAQGSC
On to B1, for which the binding entry in test [1] is “no binding (tested: 40 µM)”.

B2: recombinant SdPI peptide (scorpion-derived protease inhibitor), wild type (peptide, UniProt P0DJ45 22-80)
chain: KNKCQLPSDVGKGKASFTRYYYNEEGGKCETFIYGGVGGNSNNFLTKEDCCRECAQGSC
In the case of B2, in test [2], the binding entry was “no binding (tested: 40000 nM)”.
